Experimental data reported in publication PMC9237076.
These are yes or no findings as the source states them, for the method shown. In cells and extracts the contact can be indirect. A yes stands for co-enrichment or nearness to the bait. Other partners may have been found. Tags and fused reporters may be left off the sequences shown.

Amino acid sequences for entries named in this document (tags omitted).
UniProt P05549: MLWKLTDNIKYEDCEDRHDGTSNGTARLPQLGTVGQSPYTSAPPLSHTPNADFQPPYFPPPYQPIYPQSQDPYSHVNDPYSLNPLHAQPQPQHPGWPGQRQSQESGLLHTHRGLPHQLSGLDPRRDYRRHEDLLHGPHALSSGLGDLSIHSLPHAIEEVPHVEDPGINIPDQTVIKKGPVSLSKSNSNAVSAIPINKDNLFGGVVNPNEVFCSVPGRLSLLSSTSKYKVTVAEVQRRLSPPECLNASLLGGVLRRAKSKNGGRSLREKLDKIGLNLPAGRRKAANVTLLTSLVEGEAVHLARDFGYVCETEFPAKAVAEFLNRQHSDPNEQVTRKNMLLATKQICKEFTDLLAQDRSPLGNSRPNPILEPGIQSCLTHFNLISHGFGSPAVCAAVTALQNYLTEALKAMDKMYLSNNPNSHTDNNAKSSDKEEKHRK

Target: T1, c-myc-tagged CIITA (major histocompatibility complex class II transactivator), in osteocytes (UniProt P33076)
T1 sequence: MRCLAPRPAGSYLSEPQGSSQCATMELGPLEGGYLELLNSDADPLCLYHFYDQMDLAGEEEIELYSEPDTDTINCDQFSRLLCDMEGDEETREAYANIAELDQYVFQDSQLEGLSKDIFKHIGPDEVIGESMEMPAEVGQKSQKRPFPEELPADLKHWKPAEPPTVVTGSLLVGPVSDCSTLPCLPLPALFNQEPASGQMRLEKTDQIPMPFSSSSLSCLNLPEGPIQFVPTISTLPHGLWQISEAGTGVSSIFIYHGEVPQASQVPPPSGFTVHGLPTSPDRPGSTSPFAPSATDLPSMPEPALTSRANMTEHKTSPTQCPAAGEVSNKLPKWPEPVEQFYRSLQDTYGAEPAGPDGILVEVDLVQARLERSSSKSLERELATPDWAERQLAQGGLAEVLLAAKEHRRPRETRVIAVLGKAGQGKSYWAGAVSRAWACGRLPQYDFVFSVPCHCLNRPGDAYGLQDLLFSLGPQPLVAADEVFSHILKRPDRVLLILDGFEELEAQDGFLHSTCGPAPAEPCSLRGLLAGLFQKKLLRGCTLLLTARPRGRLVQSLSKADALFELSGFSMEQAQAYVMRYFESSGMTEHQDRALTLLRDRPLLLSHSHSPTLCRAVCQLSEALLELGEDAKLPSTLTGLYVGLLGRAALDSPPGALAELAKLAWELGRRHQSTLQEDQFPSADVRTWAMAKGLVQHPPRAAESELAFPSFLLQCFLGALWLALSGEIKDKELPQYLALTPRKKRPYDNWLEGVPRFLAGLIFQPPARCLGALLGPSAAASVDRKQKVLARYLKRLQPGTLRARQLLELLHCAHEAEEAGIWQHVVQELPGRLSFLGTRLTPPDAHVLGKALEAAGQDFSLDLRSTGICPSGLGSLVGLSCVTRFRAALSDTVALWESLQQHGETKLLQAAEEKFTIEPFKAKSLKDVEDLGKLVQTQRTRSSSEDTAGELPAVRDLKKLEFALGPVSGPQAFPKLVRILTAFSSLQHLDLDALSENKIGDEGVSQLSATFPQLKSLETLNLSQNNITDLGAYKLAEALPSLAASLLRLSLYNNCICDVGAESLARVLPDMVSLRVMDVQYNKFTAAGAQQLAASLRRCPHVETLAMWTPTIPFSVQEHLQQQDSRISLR
Assay: affinity purification with mass spectrometry; lysate of human osteocytes transfected with c-myc-CIITA pulled down by anti-c-Myc agarose; SDS-PAGE bands digested with trypsin, nano-LC/MS/MS; empty vector as control

With “transcriptional factor AP2α, in osteocytes transfected with c-myc-CIITA (from UniProt P05549 1-437)” as the substance, how does the binding read?
Its binding is “binds”.
